The target in this test is MalK with a His6-tag at the C-terminus (E. coli K12) (UniProt P68187). Description: co-purification; MalF, MalG and MalK-His6 co-expressed in E. coli BL21; membranes solubilised in 1% DDM; Ni-NTA Sepharose (imidazole gradient) in 0.01% DDM, then gel filtration (Superdex 200). On the technique in general: Size exclusion chromatography separates by hydrodynamic size, large species first.

These are yes or no findings as the source states them, for the method shown. Some entries that bind do so weakly or less than the wild type.

MalF (from UniProt P02916 1-514): the binding result is on record as “binds”.
